Measurements published in article PMC4409726, “Characterization of chromosomal and megaplasmid partitioning loci in Thermus thermophilus HB27”.
The exact form of at least one protein or probe is not confirmed. The comparison behind a weaker result is the experiment's own reference, which may not be listed here. Where a protein sequence is shown, tags need not be part of it. At least one verdict was read from the data and is not stated in words by the source.

Tests used:
[1] = biological target: T1, ParBc (Thermus thermophilus HB27) (UniProt Q72H91); assay: competition with a labelled probe; details: 50 mM KCl, 10 mM Tris-HCl pH 7.0, 1 mM EDTA, 1 mM DTT, 4% glycerol, 0.02 ug/ul poly(dI-dC), 25 ul, 15 pmol FAM probe, 0 or 200 pmol ParB (competition), 25 C 30 min, recombinant protein
T1 sequence (looked up, limits assumed): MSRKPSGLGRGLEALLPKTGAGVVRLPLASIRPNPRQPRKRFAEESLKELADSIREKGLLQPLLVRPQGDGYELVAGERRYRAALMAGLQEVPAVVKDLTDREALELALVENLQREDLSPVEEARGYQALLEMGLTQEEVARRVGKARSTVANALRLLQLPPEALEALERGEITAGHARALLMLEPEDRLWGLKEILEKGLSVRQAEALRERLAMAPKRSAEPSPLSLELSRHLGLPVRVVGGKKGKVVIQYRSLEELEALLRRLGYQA

[2] = biological target: T2, ParBm (Thermus thermophilus HB27) (UniProt Q746H2); assay: competition with a labelled probe; details: 50 mM KCl, 10 mM Tris-HCl pH 7.0, 1 mM EDTA, 1 mM DTT, 4% glycerol, 0.02 ug/ul poly(dI-dC), 25 ul, 15 pmol FAM probe, 0 or 200 pmol ParB (competition), 25 C 30 min, recombinant protein
T2 sequence (looked up, limits assumed): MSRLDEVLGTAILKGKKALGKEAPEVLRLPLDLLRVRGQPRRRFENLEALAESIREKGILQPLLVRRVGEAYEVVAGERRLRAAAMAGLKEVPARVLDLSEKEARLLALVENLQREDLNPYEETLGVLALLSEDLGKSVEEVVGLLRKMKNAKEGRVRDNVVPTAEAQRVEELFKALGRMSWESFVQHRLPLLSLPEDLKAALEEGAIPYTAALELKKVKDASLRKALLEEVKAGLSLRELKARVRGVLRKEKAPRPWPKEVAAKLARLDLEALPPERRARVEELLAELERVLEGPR

Sequence: GCTGTGTGCAGGCCTTCA (double strand) [Mu parSm 18-bp competitor]
- binding result ([1]; unlabeled competitor vs FAM-WT parSm, competes even better than WT parSm, nonspecific): binds
- binding result ([2]; unlabeled competitor vs FAM-WT parSm, competes much less than WT): binds more weakly

Sequence: CGTGCCCAGGGAGACCTCAGGCGCC (double strand) [Mu parSc 25-bp competitor]
- binding result ([1]; unlabeled competitor vs FAM-WT parSc, competes much less than WT): binds more weakly
- binding result ([2]; unlabeled competitor vs FAM-WT parSc, competes even better than WT parSc, nonspecific): binds
